Data published in paper PMC9867761.
Results are given in words; binding and its absence hold for the method and conditions named. In cells and extracts the contact can be indirect. Some entries that bind do so weakly or less than the wild type. For some of these results: Sequences can lack the tags named with a protein. Values belong to the molecule of their own block, whether it stands above or below them.

Sequences of proteins named here, by UniProt entry; tags and fusion partners are left off.
UniProt Q03141: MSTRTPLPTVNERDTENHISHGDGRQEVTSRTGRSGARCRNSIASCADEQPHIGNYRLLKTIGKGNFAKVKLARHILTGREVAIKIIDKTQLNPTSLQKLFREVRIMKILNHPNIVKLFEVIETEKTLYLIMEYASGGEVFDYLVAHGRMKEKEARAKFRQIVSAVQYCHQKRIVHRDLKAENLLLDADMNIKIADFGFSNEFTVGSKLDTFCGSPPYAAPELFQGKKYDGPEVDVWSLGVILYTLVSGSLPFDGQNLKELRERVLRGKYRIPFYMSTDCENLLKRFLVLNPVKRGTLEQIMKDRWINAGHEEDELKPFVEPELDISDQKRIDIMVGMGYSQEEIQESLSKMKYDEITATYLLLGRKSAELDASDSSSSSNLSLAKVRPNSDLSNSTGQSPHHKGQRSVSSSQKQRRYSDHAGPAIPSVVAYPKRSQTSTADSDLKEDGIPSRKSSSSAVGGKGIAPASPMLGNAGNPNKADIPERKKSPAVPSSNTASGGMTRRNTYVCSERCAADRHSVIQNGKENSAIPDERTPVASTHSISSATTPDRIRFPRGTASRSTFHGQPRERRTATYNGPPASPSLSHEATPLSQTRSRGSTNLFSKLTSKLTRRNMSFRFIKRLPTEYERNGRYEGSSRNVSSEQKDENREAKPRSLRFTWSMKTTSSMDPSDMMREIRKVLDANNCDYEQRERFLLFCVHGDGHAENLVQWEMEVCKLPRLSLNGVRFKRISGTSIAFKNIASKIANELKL

Key:
[1] = molecular target: T1, Wdr4 fused with a Flag tag (mouse) (UniProt Q9EP82); assay: co-IP; N2a cells expressing Flag-Wdr4; RIPA lysate incubated with anti-Flag M2 beads at 4 °C for 3-4 h; bound proteins by western blot
T1 sequence: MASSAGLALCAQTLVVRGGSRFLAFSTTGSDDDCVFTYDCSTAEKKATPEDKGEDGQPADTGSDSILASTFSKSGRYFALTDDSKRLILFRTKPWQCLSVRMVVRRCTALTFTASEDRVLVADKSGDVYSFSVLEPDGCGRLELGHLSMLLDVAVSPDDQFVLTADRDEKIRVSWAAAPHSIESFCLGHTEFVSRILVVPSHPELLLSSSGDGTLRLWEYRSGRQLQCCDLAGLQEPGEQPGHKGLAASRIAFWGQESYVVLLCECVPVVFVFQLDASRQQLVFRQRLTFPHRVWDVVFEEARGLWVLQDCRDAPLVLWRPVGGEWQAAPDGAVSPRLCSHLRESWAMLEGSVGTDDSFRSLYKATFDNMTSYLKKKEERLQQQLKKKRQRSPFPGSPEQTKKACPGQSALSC

[2] = molecular target: T2, endogenous Wdr4 (mouse (endogenous, cells not named)) (UniProt Q9EP82); assay: co-IP; endogenous proteins; RIPA lysate incubated with anti-Wdr4 antibody conjugated with Protein A-Sepharose overnight; Arhgap17 detected by western blot (sc-514438)
T2 sequence: T1 sequence

- binding [1]: no binding
Molecule: Mark3 (from UniProt Q03141 1-753)

- binding [1]: no binding
B1: Stag2 (protein, UniProt O35638 1-1231)
chain: MIAAPEIPTDFNLLQESETHFSSDTDFEDIEGKNQKQGKGKTCKKGKKGPAEKGKSGNGGGKPPSGSNRMNGHHQQNGVENMMLFEVVKMGKSAMQSVVDDWIESYKHDRDIALLDLINFFIQCSGCKGVVTAEMFRHMQNSEIIRKMTEEFDEDSGDYPLTMAGPQWKKFKSSFCEFIGVLVRQCQYSIIYDEYMMDTVISLLTGLSDSQVRAFRHTSTLAAMKLMTALVNVALNLSINMDNTQRQYEAERNKMIGKRANERLELLLQKRKELQENQDEIENMMNAIFKGVFVHRYRDAIAEIRAICIEEIGIWMKMYSDAFLNDSYLKYVGWTMHDKQGEVRLKCLTALQGLYYNKELNSKLELFTSRFKDRIVSMTLDKEYDVAVQAIKLLTLVLQSSEEVLTAEDCENVYHLVYSAHRPVAVAAGEFLYKKLFSRRDPEEDGLMKRRGRQGPNANLVKTLVFFFLESELHEHAAYLVDSMWDCATELLKDWECMNSLLLEEPLSGEEALTDRQESALIEIMLCTIRQAAECHPPVGRGTGKRVLTAKEKKTQLDDRTRITELFAVALPQLLAKYSVDAEKVTNLLQLPQYFDLEIYTTGRLEKHLDALLRQIRNIVEKHTDTDVLEACSKTYHALCNEEFTIFNRVDISRSQLIDELADKFNRLLEDFLQEGEEPDEDDAYQVLSTLKRITAFHNAHDLSKWDLFACNYKLLKTGIENGDMPEQIVIHALQCAHYVILWQLAKITESTSTKEDLLRLKKQMRVFCQICQHYLTNVNTTVKEQAFTILCDILMIFSHQIMSGGRDMLEPLVYTPDSSLQSELLSFILDHVFIEQDDDSNSADGQQEDEASKIEALHKRRNLLAAFCKLIVYTVVEMNTAADIFKQYMKYYNDYGDIIKETMSKTRQIDKIQCAKTLILSLQQLFNEMIQENGYNFDRSSSTFSGIKELARRFALTFGLDQLKTREAIAMLHKDGIEFAFKEPNPQGESHPPLNLAFLDILSEFSSKLLRQDKRTVYVYLEKFMTFQMSLRREDVWLPLMSYRNSLLAGGDDDTMSVISGMSSRGSTVRSKKSKPSTGKRKVVEGMQLALPEESSSSDSMWLSREQTLHTPVMMQTPQLTSTIMREPKRLRPEDSFMSVYPMQAEHHQTPLDYNRRGTSLMEDDEEPIVEDVMMSSEGRIEDLNEGMDFDTMDIDLPPSKNRRERTELKPDFFDPASIMDESVLGVSMF

- binding [1]: binds
- binding [2]: binds
B2: Arhgap17 (protein, UniProt Q3UIA2-4 1-727)
chain: MKKQFNRMKQLANQTVGRAEKTEVLSEDLLQIERRLDTVRSMCHHSHKRLIACFQGQHGTDAERRHKKLPLTALAQNMQEASAQLEESLLGKMLETCGDAENQLALELSQHEVFVEKEIMDPLYGIAEVEIPNIQKQRKQLARLVLDWDSVRARWNQAHKSSGTNFQGLPSKIDTLKEEMDEAGNKVEQCKDQLAADMYNFMAKEGEYGKFFVTLLEAQADYHRKALAVLEKALPEMRAHQDKWAEKPAFGTPLEEHLKRSGREIALPIEACVMLLLETGMKEEGLFRIGAGASKLKKLKAALDCSTSHLDEFYSDPHAVAGALKSYLRELPEPLMTFSLYEEWTQVASVQDQDKKLQYLWTTCQKLPPQNFVNFRYLIKFLAKLAQTSDVNKMTPSNIAIVLGPNLLWAKQEGTLAEIAAATSVHVVAVIEPIIQHADWFFPGEVEFNVSEAFVPLATPNSNHSSHTGNDSDSGTLERKRPASMAVMEGDLVKKESPPKPKDSVSAAVPAAGRNSNQMTTVPNQAQTGGNSHQLSVSTPHSAAGPSPHTLRRAVKKPAPAPPKPGNLPPGHPGGQSSPGTGTSPKPSARSPSPPQQQQQQQQQQQQQQQQQTPGMRRCSSSLPPIQAPSHPPPQPPTQPRLGEQGPEPGPTPPQTPTPPSTPPLAKQNPSQSETTQLHGTLPRPRPVPKPRNRPSVPPPPHPPGTHTVDGGLTSSVPTASRIVTDV
